# This is one part of the list.
# Target: T1, OsSMF1 (Oryza sativa, UniProt Q6ZLB0 1-436)
# T1 sequence: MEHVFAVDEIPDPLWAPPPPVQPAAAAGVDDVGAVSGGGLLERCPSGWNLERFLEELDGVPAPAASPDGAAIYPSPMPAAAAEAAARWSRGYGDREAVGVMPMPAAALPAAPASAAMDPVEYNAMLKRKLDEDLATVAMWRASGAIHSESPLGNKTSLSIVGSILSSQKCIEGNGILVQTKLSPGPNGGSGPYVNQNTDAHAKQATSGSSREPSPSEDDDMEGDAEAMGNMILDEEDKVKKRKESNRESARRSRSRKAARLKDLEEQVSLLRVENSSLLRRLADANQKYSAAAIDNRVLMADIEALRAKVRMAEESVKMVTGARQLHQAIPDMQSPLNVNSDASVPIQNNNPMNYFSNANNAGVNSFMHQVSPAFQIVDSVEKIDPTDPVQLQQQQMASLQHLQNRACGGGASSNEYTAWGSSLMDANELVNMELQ
# Experiment: protein-binding microarray (RPBM); PBS, 2% BSA, 51.3 ng/ul salmon testes DNA, 50 uM zinc acetate, 200 nM TF, 25 C, 1 h; high values mean tight binding
# Details: protein: recombinant; tags: N-terminal polyhistidine and DsRed monomer fusion (pET32a); chain copies: 2; label: CyDye5-dUTP incorporated in the synthesized complementary strand; 3' TTTTT single-stranded linker to array surface; dsDNA, one strand shown
# In short: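 Transcription factors were each fused at the N-terminus to a polyhistidine tag plus DsRed and expressed in E. coli BL21-CodonPlus before Ni–NTA purification. Binding to a double-stranded custom Agilent array was carried out with 200 nM protein at 25 °C for 1 h in PBS, 2% BSA, salmon testes DNA and 50 µM zinc acetate. The binding signal is per-feature fluorescence intensity, in arbitrary units, on an Axon 4000B scanner.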
row,Sequence,binding signal
1,ATTTTCGTGTGCAGTATATGTGTTCCCAACCCTGAGAGCCCGGAGTCACCTAGTGCAG,3620 fluorescence intensity (a.u.)
2,TCTATAAATATGATGTGGCTATGTACTCAGTACTCACCTGCGGAGTCACCTAGTGCAG,6690 fluorescence intensity (a.u.)
3,GTTCGCTTTTGTAAATAAAGATATGTGTTTGAGTCAGCTTCGGAGTCACCTAGTGCAG,5340 fluorescence intensity (a.u.)
4,TGGAGATGGCGGGGCTGTCCACGTGCAAGGGCCGGCGCGTCGGAGTCACCTAGTGCAG,4350 fluorescence intensity (a.u.)
5,TGTATTTCTGCATCACTTTCTATTTCATATTCTTCATTCCCGGAGTCACCTAGTGCAG,3160 fluorescence intensity (a.u.)
6,GCCACTGAATGTTCAGAGATGATTTGCAAATTGCAACCGCCGGAGTCACCTAGTGCAG,27800 fluorescence intensity (a.u.)
7,TGGATATGCATGCGTACGTACGTAGCTTACCTATAGCTAGCGGAGTCACCTAGTGCAG,3500 fluorescence intensity (a.u.)
8,AATAATCACAAATCTAGCCACGACAGTGACTTTGCACTTCCGGAGTCACCTAGTGCAG,4150 fluorescence intensity (a.u.)
9,GGCCCATGGAAGCCTATGCGGGCCCACGTGTTGGCCCGTGCGGAGTCACCTAGTGCAG,5270 fluorescence intensity (a.u.)
10,ACCATGAAGGATCATGGTTATGAACATCAATACATCATCACGGAGTCACCTAGTGCAG,3460 fluorescence intensity (a.u.)
11,CGAGTGACTAGCAGCACACGACAGTGACGTGGCGTCGTAGCGGAGTCACCTAGTGCAG,24100 fluorescence intensity (a.u.)
12,AGGTCGCTCCAAACTAATCCACCTCACCTCGTCCTCGTCGCGGAGTCACCTAGTGCAG,4510 fluorescence intensity (a.u.)
13,TCGACTCTGGAGTACGTAGCGACACGATCCCCGTCCATCGCGGAGTCACCTAGTGCAG,3350 fluorescence intensity (a.u.)
14,CCTGGACCAGGTCCACCAAGGCCCGCTCACACCGACAATTCGGAGTCACCTAGTGCAG,28700 fluorescence intensity (a.u.)
15,TAAAATCTAGATGCAATGAGTTATTTCATATGATTTGAAACGGAGTCACCTAGTGCAG,17000 fluorescence intensity (a.u.)
16,GGATTTGCAATATATTGGTGGCACTATGTGTGAGAGATTTCGGAGTCACCTAGTGCAG,3750 fluorescence intensity (a.u.)
17,TCCCGCTCACCACCACGCCACGTCACCGATCCGCGCAACCCGGAGTCACCTAGTGCAG,22400 fluorescence intensity (a.u.)
18,GCAAGTACACTTAAAACCTGTTAGTCATGAATAAAACTCTCGGAGTCACCTAGTGCAG,4060 fluorescence intensity (a.u.)
19,GCGGGCAGTGGGCGCGAGATCTCATCCGAGTGGGTGGGCGCGGAGTCACCTAGTGCAG,3750 fluorescence intensity (a.u.)
20,AAACTAATTATACAGATTACGTGTAAATTGCGAGACGAATCGGAGTCACCTAGTGCAG,4120 fluorescence intensity (a.u.)
21,GCAATCCCGATAAGGTGACTCGGACTCACACATCAACCCCCGGAGTCACCTAGTGCAG,3570 fluorescence intensity (a.u.)

# Looked up above.
# binding signal, CGAGTGACTAGCAGCACACGACAGTGACGTGGCGTCGTAGCGGAGTCACCTAGTGCAG reads 24100 fluorescence intensity (a.u.)
# binding signal, AATAATCACAAATCTAGCCACGACAGTGACTTTGCACTTCCGGAGTCACCTAGTGCAG reads 4150 fluorescence intensity (a.u.)

# The listing continues.

row,Sequence,binding signal
1,GGGGAAGGTGGCCACGTCACGCTTTGCTCGCCTCGTCCGGCGGAGTCACCTAGTGCAG,23500 fluorescence intensity (a.u.)
2,CACACTGACACATGTCCGCGAAATTTCGACGTTTCGACATCGGAGTCACCTAGTGCAG,3690 fluorescence intensity (a.u.)
3,ACGGCGTCGTCATCAGCCAGGCCGACTACCAGGGCCTACACGGAGTCACCTAGTGCAG,4060 fluorescence intensity (a.u.)
4,CCGCAAGCCTCCGTCGAGATTGACGTCACCCGTTCAAGCCCGGAGTCACCTAGTGCAG,9330 fluorescence intensity (a.u.)
5,CGCTCCATCCAACTCATCACACACACGACACAGCACACCGCGGAGTCACCTAGTGCAG,6930 fluorescence intensity (a.u.)
6,ACGCGAGACCAGGGCAGCTAGGAGAACGGGGACAGGAGGGCGGAGTCACCTAGTGCAG,3330 fluorescence intensity (a.u.)
7,GGCCGTGAGTGCGGCACGTGGGCTGGCACGGCACGGCCCGCGGAGTCACCTAGTGCAG,3810 fluorescence intensity (a.u.)
8,AGTTTTGTACGCATGTGTGGCGCTGACGTCATGCCCGATCCGGAGTCACCTAGTGCAG,18000 fluorescence intensity (a.u.)
9,CATGGGTAGCACATGACTAGTCCAGTTCTCCCTGTCAGCACGGAGTCACCTAGTGCAG,3870 fluorescence intensity (a.u.)
10,CACAGCACCTCATTTGCGTTACCTCGTATGCCACATAGGACGGAGTCACCTAGTGCAG,5290 fluorescence intensity (a.u.)
11,TGCGCCGGGAGTTTTCTCGAGCCACGTGTGCTCCTGCTATCGGAGTCACCTAGTGCAG,11200 fluorescence intensity (a.u.)
12,TCTGCAGGACACGAGGTTCATGACTGTGTTCAGTTATTACCGGAGTCACCTAGTGCAG,3540 fluorescence intensity (a.u.)
13,CTTGTGGGCCCACATGTTAGTGACCACGTCACGTGGCAGTCGGAGTCACCTAGTGCAG,7210 fluorescence intensity (a.u.)
14,TATTATCTGCACGCCTTCCACCTCACTCGCTAACCGTTACCGGAGTCACCTAGTGCAG,5870 fluorescence intensity (a.u.)
15,ACCGAACACCCACGCCAGCCGCCGCGCGCTGCCGCCCCATCGGAGTCACCTAGTGCAG,3440 fluorescence intensity (a.u.)
16,CCCACTCCTCCAAACCCTCCGTCAGCACAGACCGGCGGTCCGGAGTCACCTAGTGCAG,3410 fluorescence intensity (a.u.)
17,AACACCACCGCCCGCAGGTGCCAGCACCGCGCCTCCTCCACGGAGTCACCTAGTGCAG,3250 fluorescence intensity (a.u.)
18,AACGCCCGCTGACACGTGGGCCCCGCTTGCCCTCCAGCTCCGGAGTCACCTAGTGCAG,16300 fluorescence intensity (a.u.)
19,CCGATGACGTTAGAACCATATGTGTTACTGCTGACGCATACGGAGTCACCTAGTGCAG,11700 fluorescence intensity (a.u.)
20,CATGCTCCTGCTCTTCCATGGCGGCGGCGACACGCACCCTCGGAGTCACCTAGTGCAG,3240 fluorescence intensity (a.u.)
21,GTTAAATGCACGACGTCATGCAAATGCGACTGTGAGACCGCGGAGTCACCTAGTGCAG,3940 fluorescence intensity (a.u.)
